# Measured values as given in the supplement of paper PMC6411743.
# Amino acid sequences for entries named in this document (tags omitted). A change or cut given only in a name is not applied to a line headed by its entry.
# UniProt Q8N129: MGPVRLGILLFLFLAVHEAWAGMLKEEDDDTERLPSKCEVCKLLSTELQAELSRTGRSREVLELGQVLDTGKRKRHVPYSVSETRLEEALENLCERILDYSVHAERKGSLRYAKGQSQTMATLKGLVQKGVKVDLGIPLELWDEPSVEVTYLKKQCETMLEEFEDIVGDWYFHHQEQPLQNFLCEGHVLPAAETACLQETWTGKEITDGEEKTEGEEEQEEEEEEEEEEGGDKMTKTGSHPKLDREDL
# UniProt Q8N0W3: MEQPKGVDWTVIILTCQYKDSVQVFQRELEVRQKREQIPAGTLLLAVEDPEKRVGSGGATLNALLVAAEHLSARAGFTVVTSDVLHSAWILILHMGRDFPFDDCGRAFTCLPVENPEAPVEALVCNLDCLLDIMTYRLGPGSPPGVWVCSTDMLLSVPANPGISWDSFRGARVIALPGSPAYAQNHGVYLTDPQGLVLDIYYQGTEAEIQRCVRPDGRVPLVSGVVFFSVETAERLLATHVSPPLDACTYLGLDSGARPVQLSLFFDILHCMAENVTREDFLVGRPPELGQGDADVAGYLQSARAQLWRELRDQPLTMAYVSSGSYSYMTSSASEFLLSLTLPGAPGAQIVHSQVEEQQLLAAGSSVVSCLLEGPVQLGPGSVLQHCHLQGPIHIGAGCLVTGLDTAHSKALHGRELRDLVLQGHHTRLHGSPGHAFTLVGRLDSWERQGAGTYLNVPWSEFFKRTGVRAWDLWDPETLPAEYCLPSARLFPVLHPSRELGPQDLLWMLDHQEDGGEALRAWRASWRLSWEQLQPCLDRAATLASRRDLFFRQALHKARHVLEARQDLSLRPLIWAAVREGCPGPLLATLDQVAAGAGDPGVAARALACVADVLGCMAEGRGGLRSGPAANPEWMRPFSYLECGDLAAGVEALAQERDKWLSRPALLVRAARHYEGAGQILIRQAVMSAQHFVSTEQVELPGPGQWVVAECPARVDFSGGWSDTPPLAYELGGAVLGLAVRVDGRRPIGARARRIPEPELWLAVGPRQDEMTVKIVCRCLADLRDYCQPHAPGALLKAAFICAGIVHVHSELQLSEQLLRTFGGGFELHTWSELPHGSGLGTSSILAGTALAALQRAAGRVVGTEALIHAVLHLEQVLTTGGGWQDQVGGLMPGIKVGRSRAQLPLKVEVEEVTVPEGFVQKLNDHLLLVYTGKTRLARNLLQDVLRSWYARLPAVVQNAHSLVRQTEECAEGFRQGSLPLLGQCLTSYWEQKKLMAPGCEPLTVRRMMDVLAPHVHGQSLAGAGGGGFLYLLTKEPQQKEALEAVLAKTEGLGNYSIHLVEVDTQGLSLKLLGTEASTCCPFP
# UniProt Q8N6G5: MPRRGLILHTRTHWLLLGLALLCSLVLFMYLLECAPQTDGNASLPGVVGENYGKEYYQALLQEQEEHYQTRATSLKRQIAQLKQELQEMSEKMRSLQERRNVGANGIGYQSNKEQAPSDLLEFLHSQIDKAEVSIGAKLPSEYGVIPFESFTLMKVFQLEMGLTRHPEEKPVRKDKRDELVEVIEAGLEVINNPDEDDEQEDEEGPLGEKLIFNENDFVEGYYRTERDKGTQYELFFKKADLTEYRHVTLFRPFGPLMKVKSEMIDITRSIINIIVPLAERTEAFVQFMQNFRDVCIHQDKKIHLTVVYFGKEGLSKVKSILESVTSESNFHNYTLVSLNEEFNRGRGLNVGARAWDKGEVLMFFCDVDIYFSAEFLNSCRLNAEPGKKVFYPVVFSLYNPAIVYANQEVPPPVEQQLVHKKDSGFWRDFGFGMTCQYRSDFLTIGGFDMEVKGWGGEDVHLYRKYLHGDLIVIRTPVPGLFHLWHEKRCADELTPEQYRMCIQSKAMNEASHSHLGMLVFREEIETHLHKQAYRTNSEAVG
# UniProt Q8N1F7: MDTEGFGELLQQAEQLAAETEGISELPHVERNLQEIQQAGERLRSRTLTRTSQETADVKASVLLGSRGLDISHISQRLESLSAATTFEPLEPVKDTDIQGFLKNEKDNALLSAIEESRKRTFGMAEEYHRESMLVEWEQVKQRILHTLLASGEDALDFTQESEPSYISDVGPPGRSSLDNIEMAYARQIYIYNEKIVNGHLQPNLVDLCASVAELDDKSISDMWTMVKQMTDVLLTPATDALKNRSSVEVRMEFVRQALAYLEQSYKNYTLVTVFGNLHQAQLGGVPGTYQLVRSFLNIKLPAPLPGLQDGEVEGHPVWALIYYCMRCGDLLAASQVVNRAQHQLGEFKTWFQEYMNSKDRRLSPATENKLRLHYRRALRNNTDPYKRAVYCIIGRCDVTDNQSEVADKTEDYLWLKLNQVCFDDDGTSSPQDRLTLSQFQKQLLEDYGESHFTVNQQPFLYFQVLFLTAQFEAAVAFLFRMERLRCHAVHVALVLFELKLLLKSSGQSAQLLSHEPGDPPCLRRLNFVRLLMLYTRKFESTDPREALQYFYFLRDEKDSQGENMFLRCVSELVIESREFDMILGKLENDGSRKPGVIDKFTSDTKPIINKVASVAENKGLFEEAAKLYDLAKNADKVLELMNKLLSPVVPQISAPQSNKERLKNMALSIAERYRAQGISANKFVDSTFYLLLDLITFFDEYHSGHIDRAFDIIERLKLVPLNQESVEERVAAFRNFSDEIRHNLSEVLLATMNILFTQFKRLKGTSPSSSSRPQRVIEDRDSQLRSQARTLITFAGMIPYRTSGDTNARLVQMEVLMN
# UniProt Q8NHV1: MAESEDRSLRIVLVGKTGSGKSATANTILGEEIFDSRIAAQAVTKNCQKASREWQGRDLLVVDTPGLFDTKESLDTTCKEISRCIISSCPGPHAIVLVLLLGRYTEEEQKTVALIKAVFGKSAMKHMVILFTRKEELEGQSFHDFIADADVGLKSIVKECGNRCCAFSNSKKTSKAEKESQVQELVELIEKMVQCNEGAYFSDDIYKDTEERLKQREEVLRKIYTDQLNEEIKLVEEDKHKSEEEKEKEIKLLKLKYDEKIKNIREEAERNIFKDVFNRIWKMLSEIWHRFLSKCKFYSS
# UniProt Q8NHG8: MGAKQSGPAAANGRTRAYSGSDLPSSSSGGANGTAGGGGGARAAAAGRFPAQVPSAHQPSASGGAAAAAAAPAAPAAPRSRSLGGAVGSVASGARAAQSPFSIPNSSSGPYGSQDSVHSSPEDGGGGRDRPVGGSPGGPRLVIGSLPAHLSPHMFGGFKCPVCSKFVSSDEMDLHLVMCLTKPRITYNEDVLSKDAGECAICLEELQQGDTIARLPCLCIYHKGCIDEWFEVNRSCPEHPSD
# UniProt Q8IXI1, whole entry, looked up: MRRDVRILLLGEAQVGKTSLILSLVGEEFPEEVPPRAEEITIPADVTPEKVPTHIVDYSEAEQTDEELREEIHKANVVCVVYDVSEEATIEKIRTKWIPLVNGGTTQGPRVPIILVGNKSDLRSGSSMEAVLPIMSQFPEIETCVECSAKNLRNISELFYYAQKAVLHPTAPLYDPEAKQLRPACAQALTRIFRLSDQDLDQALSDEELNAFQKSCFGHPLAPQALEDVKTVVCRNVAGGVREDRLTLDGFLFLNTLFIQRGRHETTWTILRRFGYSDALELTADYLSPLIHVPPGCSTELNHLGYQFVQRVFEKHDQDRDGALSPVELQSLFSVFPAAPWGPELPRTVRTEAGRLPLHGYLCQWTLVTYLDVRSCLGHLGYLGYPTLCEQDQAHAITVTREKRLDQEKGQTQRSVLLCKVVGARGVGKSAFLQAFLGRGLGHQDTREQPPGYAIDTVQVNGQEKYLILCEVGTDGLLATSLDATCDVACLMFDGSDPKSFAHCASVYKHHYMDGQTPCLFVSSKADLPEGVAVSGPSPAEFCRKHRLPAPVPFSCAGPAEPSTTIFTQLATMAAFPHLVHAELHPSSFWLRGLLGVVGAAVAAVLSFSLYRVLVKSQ
# UniProt Q8N9F7: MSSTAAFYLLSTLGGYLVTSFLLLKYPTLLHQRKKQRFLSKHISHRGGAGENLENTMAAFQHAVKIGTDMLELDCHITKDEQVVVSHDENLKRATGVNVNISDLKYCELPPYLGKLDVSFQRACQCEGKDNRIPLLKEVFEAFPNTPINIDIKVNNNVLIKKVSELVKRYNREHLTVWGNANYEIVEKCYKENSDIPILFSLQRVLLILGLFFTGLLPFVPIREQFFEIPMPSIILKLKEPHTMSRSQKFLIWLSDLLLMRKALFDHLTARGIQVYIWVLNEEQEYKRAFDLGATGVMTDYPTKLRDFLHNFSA
# UniProt Q8NFI3: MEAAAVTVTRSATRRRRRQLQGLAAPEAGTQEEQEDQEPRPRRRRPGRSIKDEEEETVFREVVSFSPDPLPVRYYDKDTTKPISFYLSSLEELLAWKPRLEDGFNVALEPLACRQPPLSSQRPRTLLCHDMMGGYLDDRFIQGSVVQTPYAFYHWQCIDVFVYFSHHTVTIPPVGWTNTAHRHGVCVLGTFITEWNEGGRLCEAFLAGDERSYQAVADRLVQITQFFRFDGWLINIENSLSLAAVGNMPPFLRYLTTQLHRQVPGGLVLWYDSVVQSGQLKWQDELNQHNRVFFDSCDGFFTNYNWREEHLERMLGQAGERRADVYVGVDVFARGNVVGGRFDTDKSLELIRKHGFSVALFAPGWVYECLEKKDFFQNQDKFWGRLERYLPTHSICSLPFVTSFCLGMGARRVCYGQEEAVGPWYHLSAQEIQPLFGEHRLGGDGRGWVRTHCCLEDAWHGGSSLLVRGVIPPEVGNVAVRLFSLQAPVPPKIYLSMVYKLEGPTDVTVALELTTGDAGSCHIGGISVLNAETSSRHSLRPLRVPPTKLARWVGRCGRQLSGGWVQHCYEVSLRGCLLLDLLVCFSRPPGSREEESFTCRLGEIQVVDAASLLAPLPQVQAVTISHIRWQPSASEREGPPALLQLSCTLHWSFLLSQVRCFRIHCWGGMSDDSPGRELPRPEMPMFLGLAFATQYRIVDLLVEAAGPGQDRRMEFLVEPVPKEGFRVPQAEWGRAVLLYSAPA
# UniProt Q8N5K1: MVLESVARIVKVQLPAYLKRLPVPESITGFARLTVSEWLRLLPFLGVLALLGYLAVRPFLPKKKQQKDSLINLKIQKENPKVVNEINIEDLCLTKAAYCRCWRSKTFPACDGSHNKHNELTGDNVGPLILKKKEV
# UniProt Q8N8J7: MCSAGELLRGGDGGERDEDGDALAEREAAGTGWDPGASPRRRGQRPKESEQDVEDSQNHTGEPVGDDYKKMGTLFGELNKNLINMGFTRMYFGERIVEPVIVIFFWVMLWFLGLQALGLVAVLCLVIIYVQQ
# UniProt Q8NC51: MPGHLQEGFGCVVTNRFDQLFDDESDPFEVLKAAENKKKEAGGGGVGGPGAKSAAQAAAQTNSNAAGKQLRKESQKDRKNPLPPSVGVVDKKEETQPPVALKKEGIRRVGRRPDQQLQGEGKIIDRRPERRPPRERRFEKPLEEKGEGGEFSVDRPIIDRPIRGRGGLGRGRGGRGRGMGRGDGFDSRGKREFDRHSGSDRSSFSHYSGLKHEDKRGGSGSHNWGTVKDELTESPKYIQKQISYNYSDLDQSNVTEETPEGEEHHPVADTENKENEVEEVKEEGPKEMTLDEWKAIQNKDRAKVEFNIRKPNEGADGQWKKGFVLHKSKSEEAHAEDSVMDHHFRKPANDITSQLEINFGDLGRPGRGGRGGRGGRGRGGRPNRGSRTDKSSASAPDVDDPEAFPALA
# UniProt Q8ND04: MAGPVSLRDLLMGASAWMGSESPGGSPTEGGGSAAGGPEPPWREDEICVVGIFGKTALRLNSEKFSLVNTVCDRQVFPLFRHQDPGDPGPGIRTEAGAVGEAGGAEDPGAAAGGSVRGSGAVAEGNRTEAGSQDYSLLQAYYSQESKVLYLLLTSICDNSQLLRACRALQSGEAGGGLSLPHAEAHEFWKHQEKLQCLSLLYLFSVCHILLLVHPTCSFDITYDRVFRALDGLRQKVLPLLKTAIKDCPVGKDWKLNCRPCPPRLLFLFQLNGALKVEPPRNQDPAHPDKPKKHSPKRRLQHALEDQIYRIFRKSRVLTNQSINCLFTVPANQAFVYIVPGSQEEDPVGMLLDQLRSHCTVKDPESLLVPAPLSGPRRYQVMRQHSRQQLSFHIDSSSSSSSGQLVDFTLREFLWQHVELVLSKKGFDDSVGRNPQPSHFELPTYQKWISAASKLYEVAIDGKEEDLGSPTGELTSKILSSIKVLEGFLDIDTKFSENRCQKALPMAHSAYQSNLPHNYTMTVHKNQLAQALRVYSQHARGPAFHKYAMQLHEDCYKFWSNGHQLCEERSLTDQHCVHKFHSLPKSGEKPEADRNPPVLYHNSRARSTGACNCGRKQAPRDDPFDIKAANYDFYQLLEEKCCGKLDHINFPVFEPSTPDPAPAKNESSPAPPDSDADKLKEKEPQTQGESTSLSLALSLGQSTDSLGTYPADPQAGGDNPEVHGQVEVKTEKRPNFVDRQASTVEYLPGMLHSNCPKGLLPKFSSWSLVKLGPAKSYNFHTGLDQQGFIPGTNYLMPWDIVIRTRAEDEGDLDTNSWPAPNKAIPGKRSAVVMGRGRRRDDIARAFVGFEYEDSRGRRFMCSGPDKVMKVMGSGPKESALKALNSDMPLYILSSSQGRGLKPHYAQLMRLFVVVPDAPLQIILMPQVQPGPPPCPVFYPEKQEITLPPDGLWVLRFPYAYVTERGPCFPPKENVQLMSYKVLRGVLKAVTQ
# ± gives the standard deviation of the averaged measurements. The list shows a part of the results, in another mix than the full data.
# Compound: Nc1ncnc2c1ncn2[C@@H]1O[C@H](COP(=O)(O)OP(=O)(O)OP(=O)(O)O)[C@@H](O)[C@H]1O [adenosine triphosphate]
# Test: NP40-soluble protein abundance relative to vehicle (solubility fold change) (ratio); higher = more soluble protein in presence of ATP
# How it was run: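 Crude Jurkat lysate, prepared by Dounce homogenisation, was exposed to eight concentrations from 0.1 to 10 mM for 10 min at room temperature and then 3 min at 37 °C. Solubilisation used 0.8% NP40 with benzonase for 60 min at 4 °C, followed by ultracentrifugation and TMT labelling of the supernatant for LC-MS/MS. After vsn normalisation of intensities, each value is the fold change against the detergent-processed vehicle within each replicate, across three independent experiments.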
Target,NP40-soluble protein abundance (concentration: 1mM),NP40-soluble protein abundance (concentration: 2mM),NP40-soluble protein abundance (concentration: 4mM),NP40-soluble protein abundance (concentration: 6mM),NP40-soluble protein abundance (concentration: 8mM),NP40-soluble protein abundance (concentration: 10mM)
FAM126B (UniProt Q8IXS8),0.973 ± 0.04,0.925 ± 0.046,0.942 ± 0.045,1.02 ± 0.069,0.9553 ± 0.0077,0.976 ± 0.034
HSCB (UniProt Q8IWL3),0.908 ± 0.094,0.935 ± 0.031,0.993 ± 0.14,0.858 ± 0.052,1.01 ± 0.024,0.957 ± 0.11
CNPY4 (UniProt Q8N129),0.898 ± 0.25,0.823 ± 0.33,0.856 ± 0.26,0.89 ± 0.31,0.786 ± 0.28,0.782 ± 0.18
UniProt Q8N0W3 and related entries,0.961 ± 0.066,0.95 ± 0.047,1 ± 0.044,0.886 ± 0.082,0.968 ± 0.032,1 ± 0.014
UniProt Q8N6G5 and related entries,1.01 ± 0.084,0.924 ± 0.048,0.907 ± 0.057,0.922 ± 0.034,0.964 ± 0.091,0.876 ± 0.05
UniProt Q8N122 and related entries,1 ± 0.035,1 ± 0.071,1.03 ± 0.027,0.987 ± 0.049,1.01 ± 0.021,0.994 ± 0.01
TTC39C (UniProt Q8N584),1.04 ± 0.024,1.04 ± 0.022,1.01 ± 0.054,1.04 ± 0.076,1.03 ± 0.062,1 ± 0.055
UniProt Q8NB15-2,0.9972 ± 0.0052,1.08 ± 0.067,1.09 ± 0.021,1.06 ± 0.1,1.06 ± 0.067,1.04 ± 0.055
GUF1 (UniProt Q8N442),1.09 ± 0.15,1.09 ± 0.015,1.11 ± 0.13,1.17 ± 0.097,1.13 ± 0.056,1.2 ± 0.066
UniProt Q8TB61 and related entries,0.958 ± 0.032,0.96 ± 0.031,1.01 ± 0.013,0.917 ± 0.026,1 ± 0.015,0.995 ± 0.072
UniProt Q8N9M1 and related entries,0.942 ± 0.054,0.922 ± 0.017,0.982 ± 0.052,0.99 ± 0.062,1 ± 0.067,1.11 ± 0.12
DIS3L2 (UniProt Q8IYB7),1.02 ± 0.021,1 ± 0.02,1 ± 0.04,0.976 ± 0.033,0.991 ± 0.02,0.98 ± 0.02
DHX37 (UniProt Q8IY37),1.22 ± 0.031,1.23 ± 0.0075,1.29 ± 0.068,1.29 ± 0.049,1.37 ± 0.068,1.42 ± 0.055
NUP93 (UniProt Q8N1F7),1 ± 0.059,0.992 ± 0.051,0.994 ± 0.03,0.991 ± 0.064,1.02 ± 0.034,1.05 ± 0.033
GIMAP7 (UniProt Q8NHV1),0.952 ± 0.036,0.921 ± 0.074,0.92 ± 0.018,0.95 ± 0.021,0.933 ± 0.056,0.902 ± 0.023
CCDC117 (UniProt Q8IWD4),0.961 ± 0.037,0.952 ± 0.034,0.936 ± 0.04,0.965 ± 0.021,0.9239 ± 0.0055,0.908 ± 0.029
UniProt Q8NHH9 and related entries,1.07 ± 0.055,1.03 ± 0.071,1.04 ± 0.069,1.04 ± 0.022,1.02 ± 0.027,0.988 ± 0.063
UniProt Q8IVW6 and related entries,1.07 ± 0.06,1 ± 0.011,1.08 ± 0.14,1.04 ± 0.058,0.98 ± 0.04,0.976 ± 0.017
UniProt Q8NFC6,0.948 ± 0.04,0.954 ± 0.028,0.949 ± 0.024,0.999 ± 0.037,0.933 ± 0.027,0.952 ± 0.014
ZNRF2 (UniProt Q8NHG8),0.937 ± 0.046,0.897 ± 0.067,0.921 ± 0.054,0.931 ± 0.076,0.857 ± 0.054,0.861 ± 0.062

# Full records, quoted from the list. Values in the order: NP40-soluble protein abundance (concentration: 1mM)	NP40-soluble protein abundance (concentration: 2mM)	NP40-soluble protein abundance (concentration: 4mM)	NP40-soluble protein abundance (concentration: 6mM)	NP40-soluble protein abundance (concentration: 8mM)	NP40-soluble protein abundance (concentration: 10mM)
# GIMAP7 (UniProt Q8NHV1) as listed: 0.952 ± 0.036	0.921 ± 0.074	0.92 ± 0.018	0.95 ± 0.021	0.933 ± 0.056	0.902 ± 0.023
# TTC39C (UniProt Q8N584) as listed: 1.04 ± 0.024	1.04 ± 0.022	1.01 ± 0.054	1.04 ± 0.076	1.03 ± 0.062	1 ± 0.055

# Additional entries.

Target,NP40-soluble protein abundance (concentration: 1mM),NP40-soluble protein abundance (concentration: 2mM),NP40-soluble protein abundance (concentration: 4mM),NP40-soluble protein abundance (concentration: 6mM),NP40-soluble protein abundance (concentration: 8mM),NP40-soluble protein abundance (concentration: 10mM)
RHOT2 (UniProt Q8IXI1),1.09 ± 0.041,1.05 ± 0.064,1.06 ± 0.11,1.04 ± 0.062,1.04 ± 0.067,1.04 ± 0.068
MRPL41 (UniProt Q8IXM3),0.99 ± 0.21,0.837 ± 0.31,0.773 ± 0.21,0.743 ± 0.4,0.698 ± 0.27,0.695 ± 0.28
KRI1 (UniProt Q8N9T8),1.04 ± 0.027,1.026 ± 0.0047,1.08 ± 0.015,1.19 ± 0.029,1.2 ± 0.052,1.28 ± 0.053
UniProt Q8NCE2-2|Q8NCE2 and related entries,0.995 ± 0.028,1.01 ± 0.041,0.995 ± 0.011,0.982 ± 0.095,0.97 ± 0.024,0.985 ± 0.039
GDAP1 (UniProt Q8TB36),0.964 ± 0.04,0.966 ± 0.065,0.958 ± 0.037,0.987 ± 0.052,0.968 ± 0.065,0.962 ± 0.06
LPCAT1 (UniProt Q8NF37),1.03 ± 0.072,1.04 ± 0.058,1.01 ± 0.017,1.01 ± 0.047,1.03 ± 0.05,1.04 ± 0.036
GDPD1 (UniProt Q8N9F7),1 ± 0.019,1.04 ± 0.058,1.03 ± 0.058,0.96 ± 0.16,1.02 ± 0.12,0.93 ± 0.027
UniProt Q8N9N2-2|Q8N9N2,1.08 ± 0.22,0.991 ± 0.09,0.976 ± 0.072,0.966 ± 0.15,1.07 ± 0.073,1.06 ± 0.075
UniProt Q8N9R8 and related entries,1.02 ± 0.11,1.06 ± 0.11,1.11 ± 0.056,0.98 ± 0.096,1.06 ± 0.035,1.04 ± 0.048
UniProt Q8NHV4 and related entries,0.958 ± 0.024,0.962 ± 0.013,0.96 ± 0.016,0.994 ± 0.069,0.947 ± 0.026,0.991 ± 0.038
UniProt Q8NBJ4 and related entries,0.892 ± 0.1,0.921 ± 0.041,0.99 ± 0.051,0.964 ± 0.11,0.893 ± 0.062,0.839 ± 0.084
UniProt Q8IX90,0.94 ± 0.038,0.967 ± 0.046,0.969 ± 0.023,0.999 ± 0.05,0.961 ± 0.024,0.957 ± 0.032
ENGASE (UniProt Q8NFI3),1.03 ± 0.097,1.08 ± 0.047,1.09 ± 0.017,1.03 ± 0.048,1.08 ± 0.02,1.07 ± 0.038
TXNDC5 (UniProt Q8NBS9),0.974 ± 0.069,0.977 ± 0.03,0.951 ± 0.055,1.01 ± 0.064,0.956 ± 0.027,0.939 ± 0.024
UniProt Q8NDV7 and related entries,1.09 ± 0.046,1.08 ± 0.07,1.11 ± 0.071,1.15 ± 0.19,1.22 ± 0.084,1.17 ± 0.064
NECAP1 (UniProt Q8NC96),0.997 ± 0.023,0.946 ± 0.072,1 ± 0.024,0.974 ± 0.044,1.01 ± 0.076,0.905 ± 0.047
COMMD1 (UniProt Q8N668),0.963 ± 0.066,0.951 ± 0.057,0.901 ± 0.067,0.938 ± 0.081,0.921 ± 0.05,0.853 ± 0.11
ZC3H7A (UniProt Q8IWR0),1.09 ± 0.065,1.13 ± 0.036,1.21 ± 0.038,1.18 ± 0.075,1.21 ± 0.071,1.21 ± 0.052
UniProt Q8IWS0 and related entries,1.06 ± 0.033,1.11 ± 0.012,1.101 ± 0.0072,1.16 ± 0.081,1.15 ± 0.034,1.16 ± 0.088
UniProt Q8NFD5 and related entries,1 ± 0.023,1.01 ± 0.038,1.03 ± 0.061,1.07 ± 0.12,1.04 ± 0.08,1.05 ± 0.059

Target,NP40-soluble protein abundance (concentration: 1mM),NP40-soluble protein abundance (concentration: 2mM),NP40-soluble protein abundance (concentration: 4mM),NP40-soluble protein abundance (concentration: 6mM),NP40-soluble protein abundance (concentration: 8mM),NP40-soluble protein abundance (concentration: 10mM)
UniProt Q8NB37,0.997 ± 0.14,0.965 ± 0.16,0.964 ± 0.078,0.971 ± 0.12,0.892 ± 0.1,0.927 ± 0.022
CISD2 (UniProt Q8N5K1),1.05 ± 0.023,0.991 ± 0.03,0.981 ± 0.015,0.986 ± 0.055,0.997 ± 0.038,0.969 ± 0.045
UniProt Q8N163,0.974 ± 0.029,0.893 ± 0.072,0.854 ± 0.065,0.893 ± 0.2,0.902 ± 0.12,0.872 ± 0.1
EHBP1L1 (UniProt Q8N3D4),0.998 ± 0.078,1.01 ± 0.14,1.02 ± 0.083,1.04 ± 0.14,0.988 ± 0.048,0.975 ± 0.026
SPATA5 (UniProt Q8NB90),1.42 ± 0.051,1.47 ± 0.06,1.51 ± 0.045,1.49 ± 0.075,1.56 ± 0.09,1.56 ± 0.13
UniProt Q8N8J7,0.952 ± 0.015,0.961 ± 0.14,0.965 ± 0.03,0.896 ± 0.056,0.914 ± 0.11,0.935 ± 0.12
UniProt Q8NCW5,0.994 ± 0.08,0.996 ± 0.048,0.989 ± 0.037,0.954 ± 0.01,1 ± 0.016,0.915 ± 0.093
PELP1 (UniProt Q8IZL8),1.03 ± 0.11,0.975 ± 0.027,1.07 ± 0.079,1.02 ± 0.069,0.998 ± 0.04,1.06 ± 0.038
UniProt Q8N128 and related entries,0.921 ± 0.032,0.938 ± 0.039,0.938 ± 0.036,0.907 ± 0.033,0.885 ± 0.041,0.897 ± 0.054
DDHD1 (UniProt Q8NEL9),1.01 ± 0.027,1.036 ± 0.0039,1.05 ± 0.016,0.984 ± 0.037,1.04 ± 0.027,1.04 ± 0.016
UniProt Q8NC51 and related entries,1.03 ± 0.078,1.04 ± 0.06,1.07 ± 0.055,1.21 ± 0.089,1.16 ± 0.029,1.26 ± 0.051
VPS52 (UniProt Q8N1B4),1.06 ± 0.079,0.996 ± 0.049,0.991 ± 0.06,0.961 ± 0.041,1.01 ± 0.067,0.973 ± 0.049
UniProt Q8ND04 and related entries,1.01 ± 0.034,1.04 ± 0.078,1.05 ± 0.06,1.01 ± 0.039,1.04 ± 0.046,1.05 ± 0.048
LRRC57 (UniProt Q8N9N7),0.976 ± 0.015,1.01 ± 0.034,0.991 ± 0.051,0.971 ± 0.029,0.993 ± 0.031,0.986 ± 0.052
NUP37 (UniProt Q8NFH4),1 ± 0.064,1.02 ± 0.048,0.996 ± 0.061,0.935 ± 0.096,1.02 ± 0.031,1.01 ± 0.039
LMTK2 (UniProt Q8IWU2),1 ± 0.3,1.05 ± 0.23,1.01 ± 0.13,0.905 ± 0.23,0.987 ± 0.02,1.08 ± 0.079
Q8N655 (UniProt Q96JN0),1.11 ± 0.12,1.15 ± 0.21,1.28 ± 0.11,1.24 ± 0.23,1.27 ± 0.22,1.36 ± 0.24
RNF168 (UniProt Q8IYW5),0.92 ± 0.026,0.932 ± 0.025,0.9569 ± 0.0069,1.01 ± 0.018,1.01 ± 0.039,1.03 ± 0.014
UniProt Q8NFF5 and related entries,0.947 ± 0.029,0.936 ± 0.046,0.921 ± 0.033,0.916 ± 0.05,0.927 ± 0.036,0.934 ± 0.022
RDH13 (UniProt Q8NBN7),1 ± 0.033,1.006 ± 0.0082,1.02 ± 0.028,1.04 ± 0.029,1.02 ± 0.055,1.05 ± 0.021
